Reference: US10654807B2, “Toll-like receptor 8 agonists” (The University Of Kansas, priority 2013, dated 2020)
Entries after “also recorded” stand apart in the source; their conditions may differ.

Tested on: human peripheral blood mononuclear cells
Assay: cytokine/chemokine induction in human PBMCs (multiplexed bead array immunoassays)
Format: cell-based
Conditions: for IFN-α induction / IL-12 and IL-18 induction: ex vivo human blood/PBMC models, FIGS. 7A-7C
[1] = human PBMCs, FIG. 9, value taken as 100 percent

In the case of CCCCc1cc2c(o1)c(N)nc1ccccc12 [Compound A8d, 2-butylfuro[2,3-c]quinolin-4-amine], the “induction of G-CSF, GRO, MIP-1α and MIP-1β” value (41-analyte multiplexed assay, human PBMCs, FIG. 9) is reported as “induced”, the IFN-α induction is reported as “bereft of IFN-α-inducing properties; also recorded: absence of IFN-α” and the “IL-12 and IL-18 induction” value is reported as “induced IL-12 and IL-18”. The IFN-α induction (listed as 3) was “without IFN-α inducing properties”, the “IL-12 and IL-18 induction” value (listed as 3) was “IL-12 and IL-18 induction profiles” and the “maximal response G-CSF” value [1] was 622 pg/mL. The “maximal response GRO” value [1] was 515 pg/mL, the “maximal response MIP-1α” value [1] was 10780 pg/mL and the “maximal response MIP-1β” value [1] was 10374 pg/mL.
